{
  "source": "paper PMC10907494",
  "about": "(Amino Acids, 2024)",
  "key": {"[1]": {"test": "general procedure: Fmoc solid-phase peptide synthesis; Rink Amide MBHA resin (0.68 mmol/g); Fmoc-Leu-Wang resin (0.65 mmol/g); HATU/HOBt/DIEA", "conditions": "whole synthesis; for final HPLC purity: 210 nm"}, "[2]": {"test": "general procedure: Fmoc solid-phase peptide synthesis; Fmoc-Rink Amide MBHA resin (0.68 mmol/g); HATU/HOBt/DIEA", "conditions": "whole synthesis; for final HPLC purity: 210 nm"}},
  "note": "Strings that start with PEPTIDE1 are HELM notation: dots part the residues, brackets hold end groups and non-standard residues.",
  "data": [
    {"substance": "PEPTIDE1{[Tyr-m].G.G.[Tyr-m].L.[am]}$PEPTIDE1,PEPTIDE1,1:R3-4:R3$$$V2.0", "values": [
      {"measurement": "isolated yield", "setting": "[1]", "value": 15.1, "unit": "%"},
      {"measurement": "final HPLC purity", "setting": "[1]", "value": 98.8, "unit": "%"}
    ]},
    {"substance": "H-(cyclo-m,m)-[Phe-Gly-Gly-Phe]-Leu-NH2", "values": [
      {"measurement": "isolated yield", "setting": "[1]", "value": 8.8, "unit": "%"},
      {"measurement": "final HPLC purity", "setting": "[1]", "value": 97.6, "unit": "%"}
    ]},
    {"substance": "PEPTIDE1{Y.G.G.F.M.[am]}$$$$V2.0", "values": [
      {"measurement": "isolated yield", "setting": "[2]", "value": 68, "unit": "%"},
      {"measurement": "final HPLC purity", "setting": "[2]", "value": 94.8, "unit": "%"}
    ]},
    {"substance": "PEPTIDE1{[Tyr-m].G.G.[Phe-p].L.[am]}$PEPTIDE1,PEPTIDE1,1:R3-4:R3$$$V2.0", "values": [
      {"measurement": "isolated yield", "setting": "[1]", "value": 13.1, "unit": "%"},
      {"measurement": "final HPLC purity", "setting": "[1]", "value": 98.2, "unit": "%"}
    ]},
    {"substance": "H-(cyclo-m,p)-[Phe-Gly-Gly-Phe]-Leu-NH2", "values": [
      {"measurement": "isolated yield", "setting": "[1]", "value": 13.1, "unit": "%"},
      {"measurement": "final HPLC purity", "setting": "[1]", "value": 97.0, "unit": "%"}
    ]},
    {"substance": "H-(cyclo-p,m)-[Phe-Gly-Gly-Phe]-Leu-NH2", "values": [
      {"measurement": "isolated yield", "setting": "[1]", "value": 9.5, "unit": "%"},
      {"measurement": "final HPLC purity", "setting": "[1]", "value": 97.8, "unit": "%"}
    ]},
    {"substance": "PEPTIDE1{Y.G.G.F.L.[am]}$$$$V2.0", "values": [
      {"measurement": "isolated yield", "setting": "[2]", "value": 79, "unit": "%"},
      {"measurement": "final HPLC purity", "setting": "[2]", "value": 99.3, "unit": "%"}
    ]},
    {"substance": "PEPTIDE1{Y.G.G.Y.L.[am]}$$$$V2.0", "values": [
      {"measurement": "isolated yield", "setting": "[2]", "value": 68, "unit": "%"},
      {"measurement": "final HPLC purity", "setting": "[2]", "value": 97.8, "unit": "%"}
    ]},
    {"substance": "PEPTIDE1{F.G.G.F.L.[am]}$$$$V2.0", "values": [
      {"measurement": "isolated yield", "setting": "[2]", "value": 76, "unit": "%"},
      {"measurement": "final HPLC purity", "setting": "[2]", "value": 99.4, "unit": "%"}
    ]}
  ]
}
